The nature of the experiment: qHTS Assay for Modulators of Lamin A Splicing. To be noted: HeLa LMNA splicing GFP/RFP minigene ratio, 48 h. In short, it runs like this: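 S3 HeLa stable clones carrying a lamin A-EGFP splicing minigene plus DsRed2 were seeded at 600 cells/well in Opti-MEM with 2% FBS, pin-dosed and incubated 48 h at 37°C. Acumen cytometry (488 nm) gave the GFP/RFP total-intensity ratio.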
For orientation: qHTS replaces the single test concentration by a dilution series.

Where [1] appears, read: measured here: GFP splicing reporter channel.
The mark [2] stands for this setting: measured here: RFP viability control channel.

Consider 54 compounds from PubChem BioAssay AID1487 (National Center for Advancing Translational Sciences (NCATS), 2009).

Some of the results follow. These are further read-outs of the screen, such as a control signal, another cell line or another target. No call is given for them. The list favours compounds with an active or inconclusive main result. The note in brackets gives the kind of curve behind each potency; many fits are weak.

Consider `Cc1ccc(S(=O)(=O)Nc2ccc(=O)n(Cc3ccc(Cl)c(Cl)c3)c2)cc1`, for which the AC50 was 35.5 µM [falling, single point] under setting [1] and 35.5 µM [falling, partial curve, poor fit] under setting [2].
`CCCNS(=O)(=O)c1ccc(Oc2ncc(C(F)(F)F)cc2Cl)cc1`: under setting [2], the AC50 is 20 µM [rising, single point].
As for `CCOc1ccccc1NC(=O)c1cc2ccc3cccnc3c2[nH]1`, the AC50 under setting [1] was 0.00126 µM [falling, full curve, poor fit] and the half-maximal activity concentration (AC50) under setting [2] was 0.2 µM [falling, full curve, poor fit].
For `CN(C)S(=O)(=O)c1ccc(N=Cc2c(C(F)(F)F)[nH][nH]c2=O)cc1`, the AC50 was 0.112 µM [falling, partial curve] under setting [1] and 8.91 µM [falling, partial curve, poor fit] under setting [2].
Take `O=C(COC(=O)c1ccc2c(c1)OCCO2)NCCC1=CCCCC1`: under setting [2], the AC50 is 0.0126 µM [falling, full curve, poor fit].
On to `CCOc1ccc(-c2cc(CCCC(=O)NCc3cccnc3)no2)cc1`, for which, under setting [1], the AC50 was 0.0224 µM [falling, full curve, poor fit].
Take `O=C(/C=C/c1ccccc1[N+](=O)[O-])c1ccc(F)cc1`: the AC50 is 4.47 µM [falling, partial curve] under setting [1] and 6.31 µM [falling, partial curve] under setting [2].
As to `CN1/C(=C\C(=O)COc2ccc3c(c2)OCO3)C(C)(C)c2ccccc21`, under setting [2], the half-maximal activity concentration (AC50) is 22.4 µM [rising, single point].
Regarding `Cc1cccc(S(=O)(=O)Nc2ccc(C)c3c2OC(C)(C)C3)c1`, the AC50 by setting is: under setting [1], 22.4 µM [rising, single point]; under setting [2], 22.4 µM [rising, single point].
Turning to `COc1ccc(-c2nnc(NC(=O)c3cc(Cl)ccc3Cl)o2)cc1`, the AC50 under setting [2] is 5.01 µM [rising, partial curve, poor fit].
The same measure, in the same setting: with `Cc1nn(C)c2c1c(-c1ccccc1)cc(=O)n2Cc1c(F)cccc1Cl` the figure was 35.5 µM [rising, single point].
As for `Cc1cc(=O)oc2cc(OCC(=O)OCC(=O)N(CCC#N)c3ccccc3)ccc12`, the AC50 under setting [1] was 3.16 µM [rising, partial curve].
As to `COc1cc(C(=O)Nc2ccc(N(C)C)cc2)cc(OC)c1OC`, the AC50 under setting [2] was 35.5 µM [rising, single point].
On to `COc1ccccc1N(Cc1ccccc1)S(=O)(=O)c1cccc(C(=O)Nc2ccc(C(C)=O)cc2)c1`, for which, under setting [1], the AC50 was 0.355 µM [rising, full curve, poor fit].
For the compound `O=C(COc1ccc(S(=O)(=O)N2CCCC2)cc1Cl)N1CCN(c2ccccc2)CC1`, under setting [2], the AC50 is 31.6 µM [rising, single point].
Same read-out and setting: as for `COc1ccc(CCN2C(=O)c3cccc4c(C(=O)N5CCCCC5)ccc(c34)C2=O)cc1OC`, the figure is 0.00891 µM [rising, full curve, poor fit].
For `COc1ccc(/C=C\C(=O)c2c(O)ccc3c(C)cc(=O)oc23)cc1OC`, the AC50 is 22.4 µM [falling, single point] under setting [1] and 35.5 µM [falling, single point] under setting [2].
As to `CCOC(=O)c1ccc(-c2cc(C)no2)[nH]1`, the AC50 under setting [2] is 0.00631 µM [falling, full curve, poor fit].
Turning to `O=C1CC(c2ccccc2Cl)CC(O)=C1C=Nc1ccccc1` (configuration not stated), the concentration at half-maximal activity (AC50) is, setting by setting: under setting [1], 10 µM [rising, partial curve]; under setting [2], 11.2 µM [rising, partial curve].
Turning to `COc1ccccc1Cn1c(=O)c2ccccc2n2c(Sc3ncnc4sccc34)nnc12`, the AC50 reads like this: under setting [1], 5.01 µM [falling, partial curve]; under setting [2], 3.55 µM [falling, partial curve].
For `Cc1cccc(/C(N)=N/OC(=O)C23CC4CC(CC(C4)C2)C3)c1`, the concentration at half-maximal activity (AC50) under setting [2] is 0.0251 µM [falling, full curve, poor fit].
The same measure, in the same setting: as for `COc1ccc(-c2nc(CSCC(=O)N3CCN(c4cccc(C)c4)C(C)C3)c(C)o2)cc1OC` (configuration not stated), the figure is 17.8 µM [rising, single point].
For `CCOC(=O)CNC(c1ccccc1)c1cc(Br)ccc1NC(=O)OCC` (configuration not stated), the AC50 under setting [1] was 35.5 µM [rising, single point].
With `C/C(=N\NC(=S)NCc1ccccc1)c1ccccc1F`, under setting [2], the concentration at half-maximal activity (AC50) was 14.1 µM [falling, single point].
Turning to `Cc1cccc(NC(=O)c2ccc(CN3CCN(Cc4ccccc4)CC3)cc2)c1`, under setting [1], the AC50 was 0.631 µM [falling, full curve].
Regarding `CCOc1cccc(CC(=O)N2CCc3c([nH]c4ccccc34)C2c2ccc(OC)cc2)c1OCC` (configuration not stated), under setting [2], the AC50 was 10 µM [rising, partial curve].
On to `COc1ccc(C)cc1S(=O)(=O)N(CC(=O)Nc1cccc([N+](=O)[O-])c1)c1ccc(C)cc1`, for which the AC50 by setting is: under setting [1], 0.00501 µM [falling, full curve, poor fit]; under setting [2], 0.00501 µM [falling, full curve, poor fit].
Consider `Cc1ccccc1NC1=NS(=O)(=O)c2ccccc21`, for which the AC50 under setting [2] was 3.98 µM [falling, partial curve].
Regarding `Cc1ccc(S(=O)(=O)Oc2ccc(/C=C(/NC(=O)c3ccccc3)C(=O)O)cc2)cc1`, under setting [2], the AC50 is 10 µM [rising, partial curve].
The same measure, in the same setting: with `COc1ccc(-c2c(C)nn3c(C(F)(F)F)cc(C)nc23)cc1OC` the figure was 0.794 µM [falling, partial curve, poor fit].
Regarding `CCCOc1cc(C)c(S(=O)(=O)n2ccc(C)n2)cc1C`, the AC50 is, setting by setting: under setting [1], 2.24 µM [rising, full curve, poor fit]; under setting [2], 14.1 µM [rising, partial curve].
Take `CC(NC(=O)c1ccc([N+](=O)[O-])cc1[N+](=O)[O-])c1ccc(-c2ccccc2)cc1` (configuration not stated): the AC50 is 17.8 µM [rising, single point] under setting [1] and 15.8 µM [rising, single point] under setting [2].
Take `CC(=O)Oc1ccc(N(C(C)=O)S(=O)(=O)c2cccs2)c2ccccc12`: the AC50 under setting [2] is 5.62 µM [falling, single point].
The same measure, in the same setting: with `COc1ccc(C(=O)NCC(c2cccnc2)N2CCN(c3ccccc3F)CC2)cc1OC` (configuration not stated) the figure was 0.398 µM [falling, full curve, poor fit].
As to `CCOc1ccc(C(c2c(NC(=O)c3ccccc3)sc(C)c2C)N2CCN(CCO)CC2)cc1` (configuration not stated), the AC50 runs as follows: under setting [1], 22.4 µM [falling, single point]; under setting [2], 28.2 µM [falling, single point].
Turning to `CC(=O)Oc1cccc(N2C(=O)c3ccc(C(=O)Nc4c[nH]c(=O)[nH]c4=O)cc3C2=O)c1`, the AC50 runs as follows: under setting [1], 1.12 µM [rising, partial curve]; under setting [2], 35.5 µM [rising, partial curve].
`O=S(=O)(NCc1ccccc1F)NCc1ccccc1F`: the AC50 is, setting by setting: under setting [1], 3.98 µM [falling, full curve, poor fit]; under setting [2], 5.62 µM [falling, full curve, poor fit].
For the compound `NS(=O)(=O)c1cc2c(cc1Cl)N[C@@H](CC1CCCC1)NS2(=O)=O`, the AC50 under setting [2] is 1.58 µM [falling, full curve, poor fit].
The same measure, in the same setting: as for `O=C(Nc1cccc(S(=O)(=O)NCc2ccco2)c1)c1cc(-c2ccccc2)nc2ccccc12`, the figure is 35.5 µM [rising, single point].
Same read-out and setting: as for `CCCc1cc(=O)[nH]c(SCc2nc3ccc([N+](=O)[O-])cc3[nH]2)n1`, the figure is 22.4 µM [rising, partial curve, poor fit].
`Cc1ccc(-n2c3c(cc(C(=O)NCc4ccco4)c2=O)C(=O)CCC3)cc1`: under setting [1], the AC50 is 0.0112 µM [falling, full curve, poor fit].
As to `CCOC(=O)n1cc(-c2cnc(CNC(=O)C(C)(c3ccccc3)c3ccccc3)o2)c2ccccc21`, under setting [2], the half-maximal activity concentration (AC50) is 5.01 µM [rising, partial curve].
For the compound `Cc1onc(-c2ccccc2Cl)c1C(=O)OCC(=O)Nc1ccc2c(c1)OCO2`, the AC50 is 11.2 µM [rising, partial curve] under setting [1] and 17.8 µM [rising, single point] under setting [2].
Regarding `COc1ccc(Cl)cc1N(C)C(=O)CCNC(=O)Cn1cnc2ccccc2c1=O`, under setting [2], the AC50 is 35.5 µM [rising, single point].
On the same count and under the same terms, as for `Oc1ccc2ccccc2c1/C=N/c1nc2c(s1)CCCC2`, the figure is 14.1 µM [rising, single point].
The same measure, in the same setting: as for `COc1ccc2[nH]c(-c3ccc(C)cc3)cc(=O)c2c1`, the figure is 14.1 µM [rising, single point].
Turning to `Cc1ccn2c(Nc3ccc4c(c3)OCO4)c(-c3ccccn3)nc2c1`, the AC50 under setting [2] is 7.94 µM [rising, partial curve].
For the compound `Cc1ccsc1C1Nc2ccc3ncccc3c2C2=C1C(=O)CC(C)(C)C2` (configuration not stated), the AC50 was 7.08 µM [falling, full curve] under setting [1] and 7.08 µM [falling, full curve] under setting [2].
Turning to `COc1ccc(C(=O)CN2CC(C)SC2=Nc2ccc(Cl)cc2)cc1` (configuration not stated), under setting [2], the AC50 is 0.0355 µM [rising, full curve, poor fit].
`NC(=O)CC[C@@H]1NC(=O)[C@H](Cc2ccc(O)cc2)NC(=O)c2cc([N+](=O)[O-])cc(F)c2OCC[C@@H](C(N)=O)NC1=O`: the AC50 under setting [2] is 35.5 µM [rising, single point].
For `Cn1c(=O)n(CCCOc2ccc(Br)cc2)c2ccccc21`, the AC50 under setting [1] is 11.2 µM [rising, partial curve, poor fit].
For the compound `NCCCS(=O)(=O)O`, the concentration at half-maximal activity (AC50) under setting [1] was 4.47 µM [rising, partial curve, poor fit] and the AC50 under setting [2] is 0.794 µM [rising, full curve, poor fit].
Turning to `CCOC(=O)N1CCN(Cc2nc3cc(NC(=O)c4ccccc4OC)ccc3n2C(C)C)CC1`, the AC50 under setting [1] was 8.91 µM [rising, single point] and the AC50 under setting [2] is 2.51 µM [rising, full curve].
As for `O=[N+]([O-])c1cccc(-c2csc(CS(=O)(=O)Cc3ccco3)n2)c1`, the AC50 under setting [1] was 0.00562 µM [rising, full curve, poor fit].

As a reminder, the AC50 is the concentration at which the activity in the assay is half-maximal.
